From patent US20030229207A1 (published 2003)
No constants are given. Whether binding was seen depends on the method and setting. Some entries that bind do so weakly or less than the wild type.

Amino acid sequences for entries named in this document (tags omitted). Residues count along the entry.
UniProt P06127, residues 25-372: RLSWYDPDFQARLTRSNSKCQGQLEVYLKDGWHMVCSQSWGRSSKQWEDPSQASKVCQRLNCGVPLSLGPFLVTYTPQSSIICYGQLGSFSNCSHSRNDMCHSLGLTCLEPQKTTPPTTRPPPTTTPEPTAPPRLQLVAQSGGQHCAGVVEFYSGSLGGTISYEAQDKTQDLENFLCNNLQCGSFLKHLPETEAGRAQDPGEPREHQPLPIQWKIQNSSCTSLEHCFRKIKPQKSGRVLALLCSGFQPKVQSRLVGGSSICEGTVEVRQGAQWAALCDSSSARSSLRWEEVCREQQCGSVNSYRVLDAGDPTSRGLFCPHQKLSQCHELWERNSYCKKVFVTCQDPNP

Target: recombinant soluble CD5 (UniProt P06127)
Assay: competition assay on plate-bound recombinant soluble CD5

B1: he3 Fab (Fab, V domains shown)
VH: EIQLVQSGGGLVKPGGSVRISCAASGYTFTNYGMNWVRQAPGKGLEWMGWINTHTGEPTYADSFKGRFTFSLDDSKNTAYLQINSLRAEDTAVYFCTRRGYDWYFDVWGQGTTVTVSS
VL: DIQMTQSPSSLSASVGDRVTITCRASQDINSYLSWFQQKPGKAPKTLIYRANRLESGVPSRFSGSGSGTDYTLTISSLQYEDFGIYYCQQYDESPWTFGGGTKLEIK
notes: Fab (he3 kappa and Fd) expressed in E. coli E104 from pING4628; also called Moderate-Risk Fab
- binding: binds
